# Results taken from patent US5047431A, “1,1,2-triphenylbut-1-ene derivatives” (Klinge Pharma GmbH & Co., priority 1980, dated 1991).
# Target: T1, estradiol receptor (Oryctolagus cuniculus, UniProt G1SML6)
# T1 construct: The uterus cytosol of female, prepuberal white rabbits; from tissue; host or cells: uterus cytosol of female prepuberal New Zealand white rabbits
# T1 sequence (G1SML6 1-598): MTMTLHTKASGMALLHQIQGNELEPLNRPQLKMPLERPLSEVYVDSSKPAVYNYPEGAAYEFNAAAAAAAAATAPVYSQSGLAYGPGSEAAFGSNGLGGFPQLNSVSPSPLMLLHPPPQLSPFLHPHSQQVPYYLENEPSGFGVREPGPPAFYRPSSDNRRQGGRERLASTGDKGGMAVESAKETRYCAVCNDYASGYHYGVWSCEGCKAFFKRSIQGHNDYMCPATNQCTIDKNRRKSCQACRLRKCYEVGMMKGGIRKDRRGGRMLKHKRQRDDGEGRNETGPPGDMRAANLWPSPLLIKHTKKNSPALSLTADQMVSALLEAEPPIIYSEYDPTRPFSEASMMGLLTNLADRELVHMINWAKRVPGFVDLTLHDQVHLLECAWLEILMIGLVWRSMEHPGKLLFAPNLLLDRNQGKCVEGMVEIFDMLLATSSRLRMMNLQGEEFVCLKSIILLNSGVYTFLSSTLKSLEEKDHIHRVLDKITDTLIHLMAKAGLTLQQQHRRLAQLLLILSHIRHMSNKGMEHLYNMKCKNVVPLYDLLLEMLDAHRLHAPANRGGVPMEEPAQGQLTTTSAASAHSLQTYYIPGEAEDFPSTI
# Assay: Binding affinity to the estradiol receptor (displacement of [3H]-estradiol from uterus cytosol)
# Design: species or system rabbit (New Zealand rabbits)
# Procedure: The determination of the binding affinity to the estradiol receptor was made using rabbit uterus cytosol.
# The binding affinity to the estradiol receptor was measured according to the method of N. Devleeschouwer, G. Leclercq, A. Danguy and J.C. Heuson [Europ.
# H]-estradiol from the estradiol receptor.
structure (smiles),measurement,value
"CC/C(=C(\c1ccccc1)c1ccc(OCCN(C)C)cc1)c1ccccc1 [Tamoxifen, (Z)-1-[4'-(2-dimethylaminoethoxy)phenyl]-1,2-diphenylbut-1-ene]",IC50,380 nM
